## Primary screen of a compound library

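Viability assay of Plasmodium falciparum sporozoites; the read-out is not stated. The concentration is filed as 10 mM, unlikely as a test dose, so the dose is not known. Direction is inferred from retests: higher values go with lower viability. Strong results were mostly tested again. Size under these conditions: about 34,000 compounds, about 280 of them at 50% or above in at least one test.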

Values are the deposited “Percent Effect”, in %. The controls that fix the scale are not given in the record; negative values are as filed. Compounds were drawn at random from those tested, without regard to their results. Two or more numbers in one place are separate tests of the same structure; such repeats can differ widely.

{"compound": "Cc1nccn1Cc1nnc(C2CCCN(Cc3cccnc3)C2)n1C", "stereo": "stereo not drawn", "effect": 9.459}
{"compound": "Cc1ccnc(OCC(=O)N2CCN(c3ncccn3)CC2)n1", "effect": -12.68}
{"compound": "CCn1c(C)cc(C(=O)N2CCCC(n3ccnc3C)C2)c1C", "stereo": "stereo not drawn", "effect": 8.326}
{"compound": "O=C(O)C(F)(F)F.O=C(O)C(F)(F)F.[H][C@@]12C[C@H](C(=O)Nc3cccnc3)CN(CC3CC3)[C@]1([H])CCO2", "effect": -2.92}
{"compound": "Cc1cnn(CCC(=O)NS(=O)(=O)N2CCc3ccccc32)c1", "effect": "-13.26 & -21.53 & -23.4"}
{"compound": "COc1cc(CNCC(O)c2cccc(F)c2)cc2c1OCO2.Cl", "stereo": "stereo not drawn", "effect": 11.88}
{"compound": "CC(C)NC(=O)c1ccc2c(c1)nc1n2CCN(c2ccccc2)C1", "effect": 17.54}
{"compound": "CCc1n[nH]c(C2CN(C(=O)c3cnc(C)nc3CC)CCO2)n1", "stereo": "stereo not drawn", "effect": "9.626 & 7.529 & 5.217"}
{"compound": "CC(C)N(C)Cc1cncc2c1CCN(Cc1cccs1)C2.Cl.Cl.Cl", "effect": -8.776}
{"compound": "COCCN1CCN(Cc2c(C3CCNCC3)[nH]c3ncccc23)CC1.Cl", "effect": 1.636}
{"compound": "CCOCC1CN(C(=O)c2cscn2)Cc2cn(C)nc21.O=C(O)C(F)(F)F", "stereo": "stereo not drawn", "effect": -11.53}
{"compound": "[H][C@]12CCCCN1CCC[C@H]2COc1ccc2c(c1)OCC2=O", "effect": -3.094}
{"compound": "Cc1noc(C)c1-c1ccnc(C2CCN(S(=O)(=O)N(C)C)CC2)c1", "effect": 2.524}
{"compound": "[H][C@]12CC[C@]([H])(CN(Cc3cscn3)C1)N(C(=O)OC)C2", "effect": 10.29}
{"compound": "CCC(O)CN1CCN(C(=O)Cc2ccc(OC)cc2OC)CC1", "stereo": "stereo not drawn", "effect": -0.7427}
{"compound": "CC(O)CN1CCN(C(=O)CCOC(C)C)CC1", "stereo": "stereo not drawn", "effect": -2.999}
{"compound": "COCC1CN(CCc2ccc(OC)c(OC)c2)Cc2c1cnn2C", "stereo": "stereo not drawn", "effect": -4.726}
{"compound": "CN(C)S(=O)(=O)N1CCC(c2ccnc(Nc3ccccn3)n2)C1", "stereo": "stereo not drawn", "effect": -3.314}
{"compound": "O=C(O)C(F)(F)F.O=C(O)C(F)(F)F.[H][C@@]12CN(Cc3ccncc3)C[C@]1([H])C(=O)N(Cc1ccc(OC)cc1)C2", "effect": 16.94}
{"compound": "CCOc1ccccc1-c1cc(N)[nH]n1.Cl", "effect": 6.848}
{"compound": "COc1ncccc1C(Cc1ccsc1)NC(=O)Cn1cccnc1=O", "stereo": "stereo not drawn", "effect": 10.33}
{"compound": "O=C(Nc1ccc(CCN2CCOCC2)cc1)C1CCCC1", "effect": -5.451}
{"compound": "Cc1nc(C)n(CC2CCCN2Cc2nc3ccccc3n2C)n1", "stereo": "stereo not drawn", "effect": -12.25}
{"compound": "CC1(C(=O)N2CCOCC2)CN(C2CCCCC2)CCO1", "stereo": "stereo not drawn", "effect": 2.96}
{"compound": "[H][C@@]12CN(C(=O)COC)C[C@]1([H])C(=O)N(Cc1cccc(F)c1)C2", "effect": 2.735}
{"compound": "CN(CCOc1cccc(F)c1)Cc1nc2c(cnn2C)c(=O)[nH]1", "effect": 6.181}
{"compound": "CNCCNc1nccc(-c2cn(C)nc2C)n1", "effect": -7.828}
{"compound": "COc1cc(/C=C/c2ncc(C(=O)O)s2)cc(Cl)c1OC", "effect": 8.525}
{"compound": "N#Cc1ccnc(N2CCN(CC(O)c3cccc(F)c3)CC2)c1", "stereo": "stereo not drawn", "effect": -2.999}
{"compound": "Cl.Cn1nc(C2CCCN(Cc3ccccc3)C2)c2nccnc21", "stereo": "stereo not drawn", "effect": 6.262}
{"compound": "[H][C@]12CNC[C@@]1(C(=O)NC1CCN(c3ncccc3C#N)CC1)CN(C)C2", "effect": -13.08}
{"compound": "Cc1cccc(CN2CCCC2(C(N)=O)c2cnccn2)n1", "stereo": "stereo not drawn", "effect": -4.449}
{"compound": "O=C(O)c1csc(S(=O)(=O)N2CCCc3ccc(F)cc32)c1", "effect": 5.365}
{"compound": "CC(C)(C)OC(=O)N1CC(=O)N(CCc2ccccc2)CC(O)C1", "stereo": "stereo not drawn", "effect": -38.96}
{"compound": "O=C(N[C@H]1CC[C@@]2(CCC(=O)N2CC2CC2)CC1)c1cnccn1", "effect": -6.567}
{"compound": "COC(=O)N1CC2(CCNCC2)c2cc(Cl)ccc21.Cl", "effect": -3.61}
{"compound": "O=S(=O)(Cc1c(F)cccc1Cl)NCCCN1CCCCCC1", "effect": -2.012}
{"compound": "CNc1cccc(C2CCCN(Cc3ncc[nH]3)C2)n1", "stereo": "stereo not drawn", "effect": 1.465}
{"compound": "CN(C)C(=O)CN1CCC2(CCN(C(=O)N3CCCC3)CC2)C1=O", "effect": -0.613}
{"compound": "Cc1ccsc1CN(C)c1nc2c(cnn2C(C)(C)C)c(=O)[nH]1", "effect": 7.675}
{"compound": "Cc1cccc(N2CCN(C(=O)CCc3c(C)noc3Cl)CC2)c1", "effect": -0.4488}
{"compound": "CN(Cc1cccnc1)C1CC2(CCN(c3ccccn3)CC2)C1.O=C(O)C(F)(F)F.O=C(O)C(F)(F)F.O=C(O)C(F)(F)F", "effect": -0.346}
{"compound": "O=C(NCCNc1ncccn1)C1CC(=O)N(Cc2ccco2)C1", "stereo": "stereo not drawn", "effect": 9.401}
{"compound": "CCOc1ccc(N2CCCN=C2NC(=O)c2cccc(Cl)c2)cc1", "effect": -13.96}
{"compound": "CC(C(=O)N(C)Cc1ccco1)n1cncn1", "stereo": "stereo not drawn", "effect": -6.104}
{"compound": "O=C(CCc1ccccn1)N1CCCC(n2cncn2)C1", "stereo": "stereo not drawn", "effect": 8.722}
{"compound": "Oc1nc(N2CCOCC2)nc2c1CCN(Cc1cccnc1)CC2", "effect": -6.991}
{"compound": "c1ccc(COC2CCN(c3cncc(-n4cccn4)n3)CC2)cc1", "effect": -14.88}
{"compound": "Cn1ccc2ccc(C(=O)N3CCN(C(=O)N4CCOCC4)CC3)cc21", "effect": 9.667}

Some entries from above, unchanged:

Cc1cnn(CCC(=O)NS(=O)(=O)N2CCc3ccccc32)c1 read -13.26% & -21.53% & -23.4%.
CCn1c(C)cc(C(=O)N2CCCC(n3ccnc3C)C2)c1C (stereo not drawn) read 8.326%.
CC(C)(C)OC(=O)N1CC(=O)N(CCc2ccccc2)CC(O)C1 (stereo not drawn) read -38.96%.
CCC(O)CN1CCN(C(=O)Cc2ccc(OC)cc2OC)CC1 (stereo not drawn) read -0.7427%.

Source: ChEMBL document CHEMBL3988442, “University of Dundee, Small-Polar-MMV Screening Library” (2021).